These are yes or no findings as the source states them, for the method shown. Binding seen in cells or lysates may run through a third protein. Some entries that bind do so weakly or less than the wild type.
Target: c-Jun, endogenous in PC3-oe-AR cells (human (endogenous in PC3)) (UniProt P05412)
Assay: co-IP; lysates of LNCaP-oe-cJun and PC3-oe-AR cells; 5 ug anti-cJun or same-host-sourced anti-IgG antibody at 4°C overnight, protein A/G agarose beads 2 h at 4°C; immunoblotting with anti-AR, anti-DNMT1 and anti-cJun

By UniProt entry, the sequences of proteins in these tests, tags left out.
UniProt P05412: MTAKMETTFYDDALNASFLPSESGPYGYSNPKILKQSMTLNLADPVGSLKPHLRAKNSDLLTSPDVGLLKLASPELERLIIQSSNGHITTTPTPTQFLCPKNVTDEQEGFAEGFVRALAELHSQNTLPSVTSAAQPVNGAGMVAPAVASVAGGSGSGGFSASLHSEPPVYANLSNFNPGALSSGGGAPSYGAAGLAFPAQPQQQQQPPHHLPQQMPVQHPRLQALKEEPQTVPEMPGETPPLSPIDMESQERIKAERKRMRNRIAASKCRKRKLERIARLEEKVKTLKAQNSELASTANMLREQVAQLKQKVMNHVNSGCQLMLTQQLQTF
UniProt P10275: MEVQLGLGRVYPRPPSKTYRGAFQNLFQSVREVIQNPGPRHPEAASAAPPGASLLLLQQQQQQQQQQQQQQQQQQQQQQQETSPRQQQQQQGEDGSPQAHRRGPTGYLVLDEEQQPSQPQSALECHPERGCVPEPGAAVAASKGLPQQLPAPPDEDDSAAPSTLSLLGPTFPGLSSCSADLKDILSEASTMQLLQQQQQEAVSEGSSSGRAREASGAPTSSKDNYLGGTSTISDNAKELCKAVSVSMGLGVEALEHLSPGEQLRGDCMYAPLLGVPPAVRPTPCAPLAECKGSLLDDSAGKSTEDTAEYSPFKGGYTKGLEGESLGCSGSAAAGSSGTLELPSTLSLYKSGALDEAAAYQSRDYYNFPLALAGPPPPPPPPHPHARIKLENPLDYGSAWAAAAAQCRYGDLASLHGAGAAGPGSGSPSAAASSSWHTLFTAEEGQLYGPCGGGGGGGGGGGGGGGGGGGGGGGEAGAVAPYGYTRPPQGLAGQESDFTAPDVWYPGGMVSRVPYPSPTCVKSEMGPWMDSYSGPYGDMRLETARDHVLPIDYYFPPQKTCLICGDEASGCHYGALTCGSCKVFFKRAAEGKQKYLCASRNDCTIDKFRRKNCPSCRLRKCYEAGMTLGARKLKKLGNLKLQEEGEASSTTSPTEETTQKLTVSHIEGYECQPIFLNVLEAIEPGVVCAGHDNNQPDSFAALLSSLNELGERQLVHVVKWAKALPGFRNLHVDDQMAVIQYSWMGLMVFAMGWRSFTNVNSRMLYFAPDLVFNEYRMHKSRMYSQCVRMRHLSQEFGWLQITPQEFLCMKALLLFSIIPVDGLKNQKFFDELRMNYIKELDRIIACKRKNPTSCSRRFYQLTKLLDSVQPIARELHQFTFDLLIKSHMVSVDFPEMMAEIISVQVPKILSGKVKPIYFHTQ

androgen receptor, overexpressed in PC3 cells by lentiviral transduction (PC3-oe-AR) (from UniProt P10275 1-920)
binding: binds

Reference: PMC8416735
